Assay: Diffusion coefficient of His-tagged FtsAs and His-SUMO on Tris-NTA membranes (FRAP)
Procedure: To study colocalization of His-tagged variants of FtsA, 0.5–1 µM of Cy5 labelled His-tagged FtsAs were added to the chamber, incubated for 20 min and washed 6x with reaction buffer. […] To control the density of membrane-bound FtsA, SUVs without and with Tris-NTA lipids were mixed to obtain the respective Tris-NTA concentrations. To perform FRET/FRAP experiments, equimolar concentrations of Cy3 and Cy5 labelled His-tagged FtsAs (total 0.5–1 µM) or His-SUMO-Cys were added to a chamber and treated as above. […] FRAP experiments were performed as described before.
Bleaching the acceptor dye leads to an increase in the donor intensity, which can be used to quantify the Foerster Resonance energy transfer (FRET)[48]. FRET efficiency was quantified with E%=Ipost/Ipost+Ipre⋅100 , where Ipost is the intensity of the […] and Ipre is the […]. […] To extract the contribution of both processes, we adjusted a routine recently published by Gerganova et al.[33]. In short, the code provides the contribution of both modes of recovery by analysing the shape of the fluorescence recovery profile. […] Contribution of diffusion leads to a change of the slope of the outer borders of the bleached region (S4h right). Thus, by measuring the change of the slope of the border recovery, diffusion and simple on/off binding can be distinguished. We developed “FRAPdiff”, a graphical user interface, which uses the original fit routine by David Rutkowski. It can be used directly on.tiff movies with annotated bleach regions as ImageJ ROIs. In addition, we added optional bleach correction, user selectable projection axis (x or y), and optional mirroring of the recovery profiles, if bleaching was not symmetric. The original fit routine for estimating the recovery and diffusion dynamics can be found at https://github.com/davidmrutkowski/1DReflectingDiffusion. FRAPdiff is available at 10.5281/zenodo.6400639[49] under the GPLv3 open-source license.

[1] = 2% Tris NTA, + FtsZ, Mean (WT-His6 n = 3, sd 0.000285; R286W-His6 n = 2, sd 0.01)
[2] = 2% Tris NTA, without FtsZ, Mean, n = 4 (sd WT-His6 0.01; R286W-His6 0.0184; His6-SUMO 0.0247)
[3] = […] Tris NTA, + FtsZ, Mean (WT-His6 n = 5, sd 0.00322; R286W-His6 n = 6, sd 0.04)
[4] = […] Tris NTA, without FtsZ, Mean (WT-His6 n = 5, sd 0.00794; R286W-His6 n = 6, sd 0.0855)

Molecule: FtsA-His6: FtsA WT (1-405) with amphipathic helix replaced by C-terminal His-tag
- Diffusion Coefficient [1]: 0.000263 µm2/s
- Diffusion Coefficient [2]: 0.00604 µm2/s
- Diffusion Coefficient [3]: 0.00246 µm2/s
- Diffusion Coefficient [4]: 0.00595 µm2/s

B1: FtsA R286W-His6: FtsA R286W (1-405) with amphipathic helix replaced by C-terminal His-tag (protein)
chain: MIKATDRKLVVGLEIGTAKVAALVGEVLPDGMVNIIGVGSCPSRGMDKGGVNDLESVVKCVQRAIDQAELMADCQISSVYLALSGKHISCQNEIGMVPISEEEVTQEDVENVVHTAKSVRVRDEHRVLHVIPQEYAIDYQEGIKNPVGLSGVRMQAKVHLITCHNDMAKNIVKAVERCGLKVDQLIFAGLASSYSVLTEDERELGVCVVDIGGGTMDIAVYTGGALRHTKVIPYAGNVVTSDIAYAFGTPPSDAEAIKVRHGCALGSIVGKDESVEVPSVGGRPPWSLQRQTLAEVIEPRYTELLNLVNEEILQLQEKLRQQGVKHHLAAGIVLTGGAAQIEGLAACAQRVFHTQVRIGAPLNITGLTDYAQEPYYSTAVGLLHYGKESHLNGEAEVEKRVTASV
modifications: Cy3 or Cy5 at the N-terminus in the labelled form (sortagging as for native FtsA); left off: TwinStrep-SUMO, N-terminal, cleaved | 5xGlycine tag, N-terminal, kept | His6, C-terminal, kept
- Diffusion Coefficient [1]: 0.02 µm2/s
- Diffusion Coefficient (2% Tris NTA, + FtsZ, replicate Exp1): 0.0107 µm2/s
- Diffusion Coefficient (2% Tris NTA, + FtsZ, replicate Exp2): 0.03 µm2/s
- Diffusion Coefficient [2]: 0.035 µm2/s
- Diffusion Coefficient (2% Tris NTA, without FtsZ, replicate Exp1): 0.06 µm2/s
- Diffusion Coefficient (2% Tris NTA, without FtsZ, replicate Exp2): 0.04 µm2/s
- Diffusion Coefficient (2% Tris NTA, without FtsZ, replicate Exp3): 0.02 µm2/s
- Diffusion Coefficient (2% Tris NTA, without FtsZ, replicate Exp4): 0.0169 µm2/s
- Diffusion Coefficient [3]: 0.0529 µm2/s
- Diffusion Coefficient ([…] Tris NTA, + FtsZ, replicate Exp1): 0.04 µm2/s
- Diffusion Coefficient ([…] Tris NTA, + FtsZ, replicate Exp2): 1.5e-5 µm2/s
- Diffusion Coefficient ([…] Tris NTA, + FtsZ, replicate Exp3): 0.0128 µm2/s
- Diffusion Coefficient ([…] Tris NTA, + FtsZ, replicate Exp4): 0.10 µm2/s
- Diffusion Coefficient ([…] Tris NTA, + FtsZ, replicate Exp5): 0.09 µm2/s
- Diffusion Coefficient ([…] Tris NTA, + FtsZ, replicate Exp6): 0.08 µm2/s
- Diffusion Coefficient [4]: 0.15 µm2/s
- Diffusion Coefficient ([…] Tris NTA, without FtsZ, replicate Exp1): 0.03 µm2/s
- Diffusion Coefficient ([…] Tris NTA, without FtsZ, replicate Exp2): 0.26 µm2/s
- Diffusion Coefficient ([…] Tris NTA, without FtsZ, replicate Exp3): 0.07 µm2/s
- Diffusion Coefficient ([…] Tris NTA, without FtsZ, replicate Exp4): 0.14 µm2/s
- Diffusion Coefficient ([…] Tris NTA, without FtsZ, replicate Exp5): 0.16 µm2/s
- Diffusion Coefficient ([…] Tris NTA, without FtsZ, replicate Exp6): 0.26 µm2/s
